Laboratory results taken from article doi:10.1101/2022.07.07.499247.
These are yes or no findings as the source states them, for the method shown. For part of these data: Binding seen in cells or lysates may run through a third protein. Some entries that bind do so weakly or less than the wild type.

By UniProt entry, the sequences of proteins in these tests, tags left out.
UniProt Q7KQL5: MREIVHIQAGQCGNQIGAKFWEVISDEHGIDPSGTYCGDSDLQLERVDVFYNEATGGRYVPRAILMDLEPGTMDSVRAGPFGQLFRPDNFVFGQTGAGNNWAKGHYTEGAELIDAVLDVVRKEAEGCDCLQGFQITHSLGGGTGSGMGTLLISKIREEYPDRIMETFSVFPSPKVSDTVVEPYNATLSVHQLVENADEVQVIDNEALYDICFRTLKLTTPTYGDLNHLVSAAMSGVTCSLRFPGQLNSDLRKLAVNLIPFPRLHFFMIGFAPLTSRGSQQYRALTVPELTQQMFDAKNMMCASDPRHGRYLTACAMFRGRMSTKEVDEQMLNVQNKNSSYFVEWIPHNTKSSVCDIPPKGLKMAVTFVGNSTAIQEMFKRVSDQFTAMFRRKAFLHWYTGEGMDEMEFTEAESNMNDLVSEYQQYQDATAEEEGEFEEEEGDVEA

Key:
[1] = target: recombinant beta tubulin of Plasmodium falciparum (Plasmodium falciparum) (UniProt Q7KQL5); assay: MST
[2] = target: recombinant beta tubulin of Plasmodium falciparum (Plasmodium falciparum) (UniProt Q7KQL5); assay: ELISA
[3] = target: endogenous beta tubulin in Plasmodium falciparum parasite lysate (Plasmodium falciparum (endogenous in parasite lysate)) (UniProt Q7KQL5); assay: co-IP

B1: recombinant Plasmodium falciparum cold shock protein PfCoSP (PF3D7_0109600) (protein, UniProt Q8I248 1-150)
chain: MLRRKIHIHFNSYKKHFFSQLINKEKHDKITGNVIMFDKRKGYGFIKPNDGGPDIFVHYTDICQSRTFEVTNEEKKKLAWNANMDITQKKEEYNFEYDNNNNNNNNKHNKKKEEIKKEFKYLVPGERVKFSVIYDEKSNSSKAINVDYID
binding [1]: binds
binding [2]: binds

B2: endogenous PfCoSP in Plasmodium falciparum parasite lysate (protein, UniProt Q8I248 1-150)
chain: B1 chain
binding [3]: binds
